In the assay the target is T1, siglec-E (mouse (endogenous in BMDM)) (UniProt Q91Y57).
T1 sequence (chain, constitutively tyrosine-phosphorylated (sites not stated)): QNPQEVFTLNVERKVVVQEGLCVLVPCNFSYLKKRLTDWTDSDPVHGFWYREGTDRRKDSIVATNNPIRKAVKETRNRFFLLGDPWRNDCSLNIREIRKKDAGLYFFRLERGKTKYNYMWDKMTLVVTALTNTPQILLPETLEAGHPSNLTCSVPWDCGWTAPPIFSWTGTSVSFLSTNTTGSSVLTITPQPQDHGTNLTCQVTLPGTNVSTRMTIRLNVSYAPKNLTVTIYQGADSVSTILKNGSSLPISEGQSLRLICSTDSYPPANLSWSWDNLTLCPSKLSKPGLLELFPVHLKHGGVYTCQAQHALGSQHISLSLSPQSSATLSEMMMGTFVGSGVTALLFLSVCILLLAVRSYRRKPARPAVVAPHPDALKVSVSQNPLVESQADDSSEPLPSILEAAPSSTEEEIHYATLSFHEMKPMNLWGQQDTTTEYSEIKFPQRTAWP
Briefly: co-IP; lysate of WT (and KO2 control) BMDM primed with 1 ng/ml LPS for 3 days; lysis in 50 mM Tris-HCl, 150 mM NaCl, 1% NP-40 with protease and phosphatase inhibitors; IP with sheep anti-siglec-E Ab, immunoblot for phosphotyrosine, SHP-1 and siglec-E. On the technique in general: Immunoblotting shows a protein as a band on a membrane.

Amino acid sequences for entries named in this document (tags omitted).
UniProt P29351: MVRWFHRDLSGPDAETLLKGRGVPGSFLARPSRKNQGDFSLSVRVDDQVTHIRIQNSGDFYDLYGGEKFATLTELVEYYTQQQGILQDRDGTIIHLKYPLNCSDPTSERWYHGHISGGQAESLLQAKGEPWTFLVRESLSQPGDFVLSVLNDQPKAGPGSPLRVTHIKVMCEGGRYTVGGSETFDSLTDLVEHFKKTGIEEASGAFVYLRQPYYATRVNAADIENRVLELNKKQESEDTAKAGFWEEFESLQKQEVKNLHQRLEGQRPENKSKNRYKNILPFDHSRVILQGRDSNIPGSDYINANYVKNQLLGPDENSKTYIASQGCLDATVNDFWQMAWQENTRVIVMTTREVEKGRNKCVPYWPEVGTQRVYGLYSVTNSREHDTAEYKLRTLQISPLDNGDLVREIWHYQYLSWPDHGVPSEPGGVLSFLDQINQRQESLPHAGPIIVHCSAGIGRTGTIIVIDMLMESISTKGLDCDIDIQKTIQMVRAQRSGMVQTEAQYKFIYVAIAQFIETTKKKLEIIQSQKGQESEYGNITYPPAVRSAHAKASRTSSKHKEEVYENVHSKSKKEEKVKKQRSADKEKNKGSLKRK

Results are given in words; binding and its absence hold for the method and conditions named. Binding seen in cells or lysates may run through a third protein. Some binding calls cover weakened binding; strength is not graded here.

Take “protein tyrosine phosphatase SHP-1 (from UniProt P29351 1-595) (enzyme)”: the binding entry is “binds”.

The record behind these values is paper PMC5775731.
